Experimental findings from publication PMC4014440 are described below.

No constants are given. Whether binding was seen depends on the method and setting. Binding seen in cells or lysates may run through a third protein. A result given as binding can be weak or reduced; the word gives no strength. Where a sequence is shown, tags or fusion partners need not be part of it.

Test [1] addresses T1, GFP::DLK-1S (short, inhibitory isoform of DLK-1 fused to GFP) (C. elegans) (UniProt O01700).
T1 sequence: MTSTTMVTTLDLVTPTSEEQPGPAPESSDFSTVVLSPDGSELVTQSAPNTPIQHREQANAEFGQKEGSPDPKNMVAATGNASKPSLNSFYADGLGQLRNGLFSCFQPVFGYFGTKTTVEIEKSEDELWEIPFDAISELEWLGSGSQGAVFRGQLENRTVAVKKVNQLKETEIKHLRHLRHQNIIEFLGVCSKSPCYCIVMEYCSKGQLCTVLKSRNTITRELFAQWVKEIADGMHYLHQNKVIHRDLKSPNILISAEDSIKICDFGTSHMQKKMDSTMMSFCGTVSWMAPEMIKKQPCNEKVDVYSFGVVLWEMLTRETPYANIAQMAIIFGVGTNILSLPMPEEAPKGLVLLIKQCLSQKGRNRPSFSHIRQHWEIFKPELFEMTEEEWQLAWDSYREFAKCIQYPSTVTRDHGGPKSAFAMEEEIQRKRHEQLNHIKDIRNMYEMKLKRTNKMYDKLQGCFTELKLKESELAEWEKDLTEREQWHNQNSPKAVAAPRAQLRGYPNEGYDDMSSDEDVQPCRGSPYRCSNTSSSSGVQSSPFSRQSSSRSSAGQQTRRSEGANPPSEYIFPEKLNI
The test is described as follows: co-IP; GFP::DLK-1S precipitated from 10 mg of transgenic whole worm lysate (0.1% NP-40 lysis buffer); FLAG::DLK-1L K162R detected by anti-FLAG immunoblot; wild-type and ppm-2-/- mutant animals (binding unchanged). (In general: In western blotting, separated proteins are transferred to a membrane and probed.)

Test [2] concerns the target FLAG epitope tagged DLK-1 K162R (FLAG::DLK-1L K162R) (C. elegans). The test can be described thus: co-IP; FLAG::DLK-1 K162R immunoprecipitated from 5 mg of transgenic whole worm lysate (0.1% NP-40 lysis buffer); wild-type or mutant PPM-2::GFP detected by anti-GFP immunoblot; bands quantified with Image J as ratio of PPM-2::GFP in coIP to FLAG::DLK-1 K162R immunoprecipitated.

“FLAG epitope tagged DLK-1 K162R (FLAG::DLK-1L K162R) (C. elegans) (enzyme)”: the binding result in test [1] is given as “binds”.

B1: PPM-2::GFP (GFP fusion protein of wild-type PPM-2) (enzyme, UniProt P49596 1-356)
chain: MGQTLSEPVTKKESASCANENYLVGSSCMQGWRVDMEDAHTHLLSLPDDPKCAFFAVYDGHGGSKVSQYSGINLHKKVVAQKEFSEGNMKEAIEKGFLELDQQMRVDEETKDDVSGTTAVVVLIKEGDVYCGNAGDSRAVSSVVGEARPLSFDHKPSHETEARRIIAAGGWVEFNRVNGNLALSRALGDFAFKNCDTKPAEEQIVTAFPDVITDKLTPDHEFIVLACDGIWDVMTNQEVVDFVREKLAEKRDPQSICEELLTRCLAPDCQMGGLGCDNMTVVLVGLLHGQSPDTLFTKCARPAVFTGVNNEDGDQNQIQQDISRVINNFDGEQRVNAANQEEEEDDNEPAPANFQV
In the case of B1, the binding result in test [2] is on record as “binds”.

B2: PPM-2::GFP D59N (catalytically inactive PPM-2) (enzyme, UniProt P49596 1-356)
chain: MGQTLSEPVTKKESASCANENYLVGSSCMQGWRVDMEDAHTHLLSLPDDPKCAFFAVYNGHGGSKVSQYSGINLHKKVVAQKEFSEGNMKEAIEKGFLELDQQMRVDEETKDDVSGTTAVVVLIKEGDVYCGNAGDSRAVSSVVGEARPLSFDHKPSHETEARRIIAAGGWVEFNRVNGNLALSRALGDFAFKNCDTKPAEEQIVTAFPDVITDKLTPDHEFIVLACDGIWDVMTNQEVVDFVREKLAEKRDPQSICEELLTRCLAPDCQMGGLGCDNMTVVLVGLLHGQSPDTLFTKCARPAVFTGVNNEDGDQNQIQQDISRVINNFDGEQRVNAANQEEEEDDNEPAPANFQV
In the case of B2, the binding result in test [2] is reported as “binds”.
